Test results as given in PubChem BioAssay AID2685 (National Center for Advancing Translational Sciences (NCATS), 2010).
The other results are listed elsewhere or left out. Further columns of the screen follow, without active or inactive calls. Most of these compounds were active or inconclusive in the main read-out, so they are no random draw. Potencies come from curve fits of mixed quality, noted in brackets.

Assay: qHTS Assay for Lipid Storage Modulators in Drosophila S3 Cells;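 as to cell number change: cells counted by Cell Tracker Red CMTPX staining in the red channel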
Settings: BODIPY lipid droplet fluorescence, 18-24 h; for cell number change: measured here: cell count max response, cells fed with added oleic acid
Method in brief: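 Drosophila S3 cells loaded with oleic acid (400 uM, as added) and compounds at several concentrations; lipid droplets imaged by 488-nm laser-scanning cytometry, 500–530 nm intensity and object ratio to cell channel. Percent activity normalized to 20 uM Triacsin C.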

[1] = measured here: lipid fluorescence (Fed channel) AC50, cells fed with added oleic acid
[2] = measured here: cell number channel AC50, cells fed with added oleic acid

SMILES	cell number change [%]	AC50 [1]	AC50 [2]
N#CC1=C(SCC(=O)NC23CC4CC(CC(C4)C2)C3)NC(=O)C(C#N)C12CCCCC2 (stereo unspecified)	-15.5	20.6 µM [falling, single point]	–
CCC(=O)N1CCN(c2ccc(Cl)cc2NC(=O)c2ccc3c(c2)OCCO3)CC1	-17	–	–
COc1ccc(C)cc1NC(=O)CCNC(=O)Cn1ccc2ccccc2c1=O	21.4	–	0.0259 µM [rising, full curve, poor fit]
CC(C)c1ccc(Nc2nc(Cl)nc(Cl)n2)cc1	-7.62	0.00461 µM [rising, full curve, poor fit]	–
COc1ccc(C2NC(=S)N3C(c4ccc(OC)cc4)NC(=S)N23)cc1 (stereo unspecified)	5.89	–	–
O=c1c(Cl)c(N2CCN(c3ccc(F)cc3)CC2)cnn1C12CC3CC(CC(C3)C1)C2	-22.8	14.6 µM [falling, single point]	–
COc1cc(COCC(O)CN2C(C)CCCC2C)cc(OC)c1OC (stereo unspecified)	37.2	29.1 µM [rising, single point]	32.6 µM [rising, partial curve, poor fit]
COc1ccc(NC(=O)COC(C)=O)cc1OC	14	–	–
Cc1ccn2c(Nc3ccccc3)c(-c3ccccn3)nc2c1	-31	–	10.3 µM [falling, partial curve]
COc1ccc(/C=N/Nc2ccc(C(=O)O)cc2)cc1OC	12.8	0.0058 µM [rising, full curve, poor fit]	0.00517 µM [rising, full curve, poor fit]
O=C(Nc1cc(C(F)(F)F)ccc1N1CCOCC1)c1ccc(F)cc1	5.22	7.31 µM [rising, partial curve]	–
CC(=O)c1cnc2scnn2c1=O	-37.9	–	–
COc1cc2[nH]c(C(=O)N3CCN(c4ccc(F)cc4)CC3)cc2c(OC)c1OC	-49.5	29.1 µM [falling, single point]	29.1 µM [falling, single point]
Cc1ccc(C(=O)N/N=C/c2ccc(-c3ccccc3[N+](=O)[O-])o2)cn1	-16.1	–	–
CCOC(=O)C1CCCCN1Cc1ccc(OC)c(OC)c1 (stereo unspecified)	-53.1	29.1 µM [falling, single point]	29.1 µM [falling, single point]
Cc1ccc(S(=O)(=O)CC(=O)Nc2c(C)n(C)n(-c3ccccc3)c2=O)cc1	–	0.411 µM [rising, single point]	–
CS(=O)(=O)N1CCC(C(=O)Nc2cccc(F)c2)CC1	13.8	1.3 µM [rising, full curve]	–
COc1ccc(S(=O)(=O)Nc2cc(Sc3ncn[nH]3)c(O)c3ccccc23)cc1	-32	18.4 µM [falling, partial curve]	16.4 µM [falling, single point]
COc1ccc(CC(=O)OCC(=O)NCc2ccccc2Cl)cc1OC	-59.3	–	29.1 µM [falling, single point]
COc1ccc(/C=N/NC(=S)Nc2ccccc2)cc1COc1ccc(F)cc1	-10.9	0.116 µM [rising, full curve, poor fit]	–

SMILES	cell number change [%]	AC50 [1]	AC50 [2]
Cc1ccc(S(=O)(=O)N(CC(=O)Nc2ccc(C)cc2C)C(=O)N2CCN(C)CC2)cc1	5.33	23.1 µM [falling, single point]	–
Cc1ccc(S(=O)(=O)Nc2nc3ccccc3nc2NCC2CCCO2)cc1 (stereo unspecified)	9.18	0.58 µM [rising, partial curve]	–
Cc1c(O)c(CN2CCCCC2)cc2c3c(c(=O)oc12)CCC3	-12.5	1.16 µM [rising, single point]	–
Cc1cnc(NC(=O)CCCc2nc3ccccc3s2)s1	–	5.8 µM [falling, partial curve]	4.11 µM [falling, single point]
CCOCCCNC(=S)N(CCO)Cc1cc2cc3c(cc2[nH]c1=O)OCCO3	-23	29.1 µM [falling, single point]	–
Clc1ccccc1-c1nc(-c2ccc(Br)o2)no1	-1.01	–	6.51 µM [falling, single point]
Cc1c(C#N)c(N)nc2c3c(sc12)NC(=O)CC3c1ccccc1 (stereo unspecified)	13.6	13 µM [rising, single point]	–
CCC(=O)NC(=S)Nc1ccc(NC(=O)c2ccc(C)c([N+](=O)[O-])c2)cc1	7.78	–	1.84 µM [rising, partial curve]
CN1C(=O)CC(Sc2ncccc2C(=O)O)C1=O (stereo unspecified)	-19.1	3.26 µM [falling, full curve, poor fit]	–
COCCNC(=O)CN(C(=O)CCC(=O)Nc1nccs1)c1ccc2c(c1)OCO2	5.98	0.164 µM [falling, full curve, poor fit]	–
COc1ccc(C(=O)/C=C(\N)C(F)(F)F)c(O)c1	0.404	–	–
COc1ccc(CC(=O)NC(=S)Nc2ccc(S(N)(=O)=O)cc2)cc1	85.1	–	4.11 µM [rising, full curve]
O=C(c1ccccc1)N1CCN(C(=O)c2ccc(OC(F)(F)F)cc2)CC1	-4.69	29.1 µM [rising, partial curve, poor fit]	–
O=C(Nc1ccc([N+](=O)[O-])cc1)Nc1ccc2[nH]c(=O)[nH]c2c1	-50.2	–	–
Cc1ccc(N2CCCn3c2nc2c3c(=O)n(CC(=O)OCc3ccccc3)c(=O)n2C)cc1C	8.07	5.17 µM [rising, single point]	–
COc1ccc(NC(=O)CSc2ccc3c(c2)OCCO3)cc1OC	-29.6	–	–
CCOc1ccc(N(CC(=O)Nc2ccccc2OC)S(=O)(=O)c2ccccc2)cc1	10.8	11.6 µM [rising, partial curve]	–
Cc1occc1C(=O)N1CCCC(Nc2ccc(F)cc2)C1 (stereo unspecified)	21.3	6.51 µM [rising, full curve]	–
Cc1cc2c(cc1C)C(c1ccccc1OC(C)C)CC(=O)N2 (stereo unspecified)	-36.2	–	–
COc1cc(NC(=S)NC(=O)CCc2ccccc2)cc(OC)c1	30.7	32.6 µM [rising, partial curve, poor fit]	23.1 µM [rising, single point]

3 compounds drawn at random from those above:
SMILES	cell number change [%]	AC50 [1]	AC50 [2]
CCC(=O)NC(=S)Nc1ccc(NC(=O)c2ccc(C)c([N+](=O)[O-])c2)cc1	7.78	–	1.84 µM [rising, partial curve]
Cc1ccc(S(=O)(=O)Nc2nc3ccccc3nc2NCC2CCCO2)cc1 (stereo unspecified)	9.18	0.58 µM [rising, partial curve]	–
Cc1cnc(NC(=O)CCCc2nc3ccccc3s2)s1	–	5.8 µM [falling, partial curve]	4.11 µM [falling, single point]
